Over roughly 33,000 sequences, “E-score (-0.5 to 0.5)” has its median near -0.0014; the highest 2% begin near 0.25. Some of the results follow.
The sequences below were run against T1, Cad1 (UniProt P24813) (assay: PBM E-score (8-mer binding enrichment) (E-score (-0.5 to 0.5)); higher = stronger / more preferred TF binding). Settings: protein concentration: 100 nM; construct: GST-full length.
T1 sequence: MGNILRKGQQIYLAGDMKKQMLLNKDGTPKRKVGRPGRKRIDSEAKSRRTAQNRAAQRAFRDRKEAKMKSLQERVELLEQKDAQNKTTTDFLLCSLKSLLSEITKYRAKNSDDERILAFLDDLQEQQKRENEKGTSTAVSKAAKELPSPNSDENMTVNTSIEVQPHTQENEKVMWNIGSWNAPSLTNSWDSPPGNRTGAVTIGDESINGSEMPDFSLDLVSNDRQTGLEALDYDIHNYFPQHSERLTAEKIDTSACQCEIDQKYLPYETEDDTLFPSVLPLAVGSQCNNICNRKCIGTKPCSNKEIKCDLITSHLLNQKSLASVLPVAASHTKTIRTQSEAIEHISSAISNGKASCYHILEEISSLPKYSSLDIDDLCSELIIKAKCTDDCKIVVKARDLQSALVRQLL
Experimental: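 Universal 'all 10-mer' protein binding microarrays (Agilent AMADID 015681) probed with GST-tagged S. cerevisiae TFs (full-length or DBD) made by in vitro transcription/translation (PURExpress), about 100-200 nM. Bound TF was detected with fluorescent anti-GST. Each ungapped 8-mer (which stands for itself and its reverse complement) is scored by the PBM enrichment score (E-score), a modified Wilcoxon-Mann-Whitney statistic from -0.5 to +0.5, computed with the Universal PBM Analysis Suite. Scale: above 0.35 generally sequence-specific binding.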

Point of comparison: CGGCTCTC, “PBM E-score” value -0.272. Against it:
- CTCTTTCA — higher, -0.125
- ACCTTCGT — higher, -0.13
- AGGGTGTG — higher, -0.0437
- GAGTCGGC — higher, -0.147
- AAATGCTT — higher, 0.0841
- AATCCGCC — higher, -0.0273
- CCGATCGG — higher, 0.12
- CTCCATGC — higher, -0.0943
- GTTCGGAA — higher, 0.174
- GGCTAGGA — higher, -0.155
- ACGTTAGT — higher, -0.0241
- CCCCTTCA — higher, -0.257
- ACGGATGA — higher, 0.0354
- TCAGCACA — higher, 0.172
- ATCCAGAT — higher, -0.0808
- CTTTGTCC — higher, 0.058
- CAGCTCAC — higher, -0.0192
- CAATCTGA — higher, -0.0585
- CCCGCCCA — higher, 0.00222
- ACCAACAG — higher, -0.239
- ACCCCGCC — higher, -0.0102
- AACCTGGT — higher, 0.0368
- ACCAGGAA — higher, -0.00181
- ACACCCCT — higher, -0.0545
- ACTAGCCT — higher, -0.0583
- GAGGAGCA — higher, -0.203
- CGGTCTAA — higher, -0.0121
- CGGGCGTA — higher, -0.0361
- ACTAAGTG — higher, 0.00714
- TCTTGACA — higher, 0.0271
- GCAAAGCC — higher, -0.221
- AAAACTAG — higher, -0.0215
- CCAGAACA — higher, -0.0733
- ATCGTTTC — higher, -0.0091
- GCGTTCTA — higher, -0.0605
- AAAGATGG — higher, -0.159
- CATTATCC — higher, 0.108
- CACGGTAC — higher, -0.198
- CCTGCACC — higher, -0.171
- GAAGTATA — higher, 0.0967
- GAGCATGA — higher, -0.122
- AAATAGCC — higher, -0.0946
- CAGATCCG — higher, 0.0163
- GGCAGCAC — higher, -0.0698
- CTTGGAAC — higher, 0.00784
- CACAACTG — higher, -0.0296
- CTATACAA — higher, 0.128
- TAATAATA — higher, 0.29
- GCGGCGCA — higher, 0.0175
- ATTGGTGC — higher, 0.0222
- GAACAAGA — higher, 0.176
- GGTCCGGA — higher, 0.0978
- CGATGTTC — higher, -0.0867
- TAGGCTCA — higher, -0.226
- CAGCACCA — higher, -0.242
- GTTCTGAA — higher, 0.189
- CGGAGCGC — higher, 0.0273
- AATGCCTA — higher, -0.118
- ACTTACCT — higher, -0.168
- CGCCAATA — higher, 0.0983
- CGACGGCG — higher, -0.119
- CTAGGCGC — higher, -0.124
- AGTGAGAC — higher, 0.00334
- TCATGGGA — higher, -0.048
- GAAGTAAA — higher, 0.0339
- GGACGTAC — higher, -0.104
- AGTAGTAT — higher, 0.0888
- AACTTGAT — higher, 0.268
- CTATACCA — higher, 0.132
- CGAGTCAG — higher, -0.045
- CAGCTGAG — higher, 0.0708
- CACTCCAG — higher, 0.0828
- ACAGCAGC — higher, -0.102
- GACCATGA — higher, -0.0193
- CTAGTCGA — higher, 0.0243
- ACCAGACA — higher, -0.117
- TGAATCCA — higher, 0.0491
- CTGAACCA — higher, 0.101
- AAGGCTGC — higher, -0.0352
- CTTTCAGA — higher, 0.0705
- TGCAGACA — higher, 0.0864
- AACGACAT — higher, 0.125
- AAAAAGTC — higher, 0.0909
- CAACGAGC — higher, -0.222
- AATCGTGC — higher, 0.276
- GTCCAAAA — higher, 0.0254
- ATCTGCTG — higher, 0.00623
- ATATGCGA — higher, 0.0945
- TAACTCAA — higher, 0.0271
- CCTTGCAG — higher, -0.13
- GCGAACAC — higher, 0.0273
- GATGACAA — higher, 0.304
- AGGCGCTC — higher, -0.054
- GGCCTCAC — higher, 0.0157
- AAACTGTG — higher, 0.0644
- CTCACCTC — higher, 0.0325
- CTCCCCCA — higher, -0.271
- CCAGGGGC — lower, -0.42
- CATTGTGA — higher, 0.151
- CCACATTA — higher, -0.0106
- ACGGAGGA — higher, -0.0636
- CGCGAGTA — higher, 0.141
- AACGACGG — higher, 0.107
- CCTCGGGC — higher, -0.0591
- ACTGACTC — higher, -0.0435
- GATCCATA — higher, 0.0973
- GAGGTTCC — higher, 0.0299
- CCTCTTGC — higher, -0.197
- CTGAGGTC — higher, -0.158
- CAAGTGAC — higher, 0.00674
- CTGGGTTA — higher, -0.0909
- ACCCGGTA — higher, 0.072
- TGCTTGAA — higher, 0.202
- GAACGCCA — higher, -0.0333
- AATTAACC — higher, -0.0275
- CATAGAGC — higher, -0.22
- AATGCACC — higher, -0.0757
- CTGGAAGC — higher, -0.168
- AAAGCTAT — higher, -0.0626
- ACATTACA — higher, 0.149
- ACCAGTAA — higher, 0.06
- AAAGGCCA — higher, -0.124
- AGCAACGC — higher, 0.127
- ATAAGAAT — higher, 0.284
- ATACGACA — higher, 0.00871
- GAGCTCAA — higher, 0.104
- AGCGGATA — higher, -0.0234
- ATCGGGGA — higher, -0.206
- CGGCGCCC — higher, -0.068
- ACCAAGAG — higher, -0.0606
- GGAATACA — higher, 0.0249
- CTAACAAG — higher, -0.0899
- ACGTTCCT — higher, 0.0485
- GGCTAGAA — higher, -0.0479
- ACGCCCCT — lower, -0.301
- ACGACCAC — higher, 0.0438
- AGAGGCGC — higher, -0.102
- AGAGTGAA — higher, 0.0599
- CCGACAGA — higher, 0.094
- CGCCTCTA — higher, 0.0573
- GCAACAAA — higher, 0.194
- CGAAGCTA — higher, 0.0437
- ACATTACG — higher, 0.14
- ATGCTTGC — higher, -0.14
- CCCCACAA — higher, -0.0865
- CTGTACAG — higher, -0.0838
- AGGATCCT — higher, 0.179
- CTTTGGGA — higher, -0.0878
- GCGCGTCC — higher, -0.00373
- AGCCCAGA — higher, -0.0767
- CCTAGCCG — higher, -0.096
- CTAAAAAC — higher, -0.0192
- ATCACCCC — higher, -0.0703
- AACTTATC — higher, 0.177
- CGTTAAAG — higher, -0.0571
- CGTGCTTC — higher, 0.0901
- CCACGTAG — higher, -0.213
- ACGTTAAA — higher, 0.19
- AAACTATG — higher, -0.145
- CCCTGCGC — higher, -0.168
- TCGTGTCA — higher, 0.133
- ACTGATTA — higher, 0.265
- GAGACTGC — higher, -0.00152
- AAGGGGCG — lower, -0.29
- AAGACCAA — higher, 0.035
- GCGCTTCA — higher, 0.0664
- AACCCCCA — lower, -0.311
- CATTTCTC — higher, 0.119
- GCACTGCC — higher, 0.0641
- TGAGAAAA — higher, 0.0724
- CGTTATAG — higher, 0.073
